Out of some 360,000 compounds screened, about 10,000 (2.8%) were called active. The shares of active, inactive and inconclusive entries below differ from those in the screen. Calls come from the whole dose curve; as a rule, active = well fitted inhibition curve with a large enough effect; inconclusive = small, poorly fitted or top-dose-only effect; inactive = flat fitted curve, though single readings scatter. Where the call is inconclusive, the potency comes from a doubtful curve fit.
Molecular target: Serine/threonine-protein kinase PLK1 (Homo sapiens) (UniProt P53350)
Test: qHTS for Inhibitors of PLK1-PDB (polo-like kinase 1 - polo-box domain): Primary Screen; note: nearly all actives have a fitted effect of over 65% in size; for max response, negative = inhibition: series mostly up to about 57 µM
Conditions: Plk1 PBD binding of FITC phosphopeptide, fluorescence polarization
% is set by controls: 0 for no effect and ±100 for the full control effect; potency is the fitted concentration of half-maximal effect.

Protein sequences, listed by entry. Tags and fused reporters are not part of them.
UniProt P53350, whole entry, looked up: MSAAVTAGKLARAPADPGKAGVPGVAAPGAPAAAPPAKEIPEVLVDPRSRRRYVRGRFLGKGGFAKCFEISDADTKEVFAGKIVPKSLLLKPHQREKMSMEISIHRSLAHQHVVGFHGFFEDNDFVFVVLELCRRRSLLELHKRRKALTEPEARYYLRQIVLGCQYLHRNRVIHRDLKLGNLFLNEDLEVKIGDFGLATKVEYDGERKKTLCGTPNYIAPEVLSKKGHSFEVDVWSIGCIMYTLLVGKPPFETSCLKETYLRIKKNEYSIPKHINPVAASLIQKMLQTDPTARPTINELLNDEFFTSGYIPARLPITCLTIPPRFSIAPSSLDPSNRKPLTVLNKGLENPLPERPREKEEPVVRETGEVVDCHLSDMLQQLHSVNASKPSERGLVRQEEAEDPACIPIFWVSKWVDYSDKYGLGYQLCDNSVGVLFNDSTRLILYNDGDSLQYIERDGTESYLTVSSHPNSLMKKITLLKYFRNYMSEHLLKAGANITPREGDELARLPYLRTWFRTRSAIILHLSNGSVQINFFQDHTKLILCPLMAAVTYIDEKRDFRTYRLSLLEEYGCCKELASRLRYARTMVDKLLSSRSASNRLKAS

Compound | max response, negative = inhibition | Potency
NC(=S)Nc1cc(Cl)ccc1Cl | inactive: -11.1% | 
CCOc1ccc(S(=O)(=O)N(CC(=O)N/N=C/c2cccs2)c2ccc(C)cc2)cc1 |  | inconclusive: 37.7 µM [inhibitor, single point]
COc1cccc(/C=N/N2CCN(C)CC2)c1 | inactive: -3.75% | 
Cc1ccc(Nc2nnc(-c3ccc4c(c3)OCO4)o2)c(C)c1 |  | active: 21.2 µM
O=C(Nc1nn[nH]n1)c1cccc(Oc2ccccc2)c1 | inactive: -9.68% | 
COc1ccc(/C=C\c2cc(OC)c(OC)cc2CC[N+](C)(C)C)cc1OC | inactive: -1.02% | 
Cc1nn(C(C)C(=O)NCCc2ccco2)c(=O)c2nn(-c3ccccc3)c(C)c12 (stereo not drawn) |  | inconclusive: 21.2 µM [inhibitor, single point]
CC(=O)CSc1ncnc2c1cnn2-c1ccccc1 |  | active: 23.8 µM
CCC(=O)Nc1nnc(S(=O)(=O)N(C)Cc2ccco2)s1 |  | active: 26.7 µM
O=S(=O)(Nc1ccc(S(=O)(=O)N2CCCC2)cc1)c1ccccc1Br | inactive: -0.169% | 
Cc1nn(-c2ccccc2)c(Cl)c1/C=C1/C(=N)N2N=C(C(C)C)SC2=NC1=O |  | inconclusive: 26.7 µM [inhibitor, single point]
NC(=S)c1ccc[n+]([O-])c1 |  | active: 18.9 µM
CCNC(=O)Nc1ccc(-n2nc(C)c(C(=O)OCC)c2C)nc1 |  | active: 15 µM
O=[N+]([O-])c1ccc(N2CCN(Cc3ccccc3)CC2)s1 | inactive: 0.595% | 
Cc1ccc(-n2cc(S(=O)(=O)c3ccc(C)cc3)[nH]c2=O)cc1 |  | inconclusive: 15 µM [inhibitor, partial curve]
COCCNC(=S)c1ccc(Br)cc1 |  | active: 10.6 µM
CCCCc1c(C)nc2c(OC)cccc2c1SCCC(=O)O | inconclusive: -34.7% [inhibitor] | 
CCN(CC)C(=O)CSc1nnc2nnc3cc(Cl)ccc3n12 |  | inconclusive: 21.2 µM [inhibitor, partial curve]
CCNC(=O)c1ccc(CSc2ccc(Cl)cc2)cc1 |  | active: 26.7 µM
Cc1sc(NC(=S)NC(=O)c2ccc(C(C)(C)C)cc2)c(C#N)c1C |  | inconclusive: 8.44 µM [inhibitor, partial curve]
CCOC(=O)c1c(-c2cccc(C)c2)csc1NC(=O)C1CC=CCC1C(=O)O (stereo not drawn) |  | inconclusive: 26.7 µM [inhibitor, single point]
Cc1ccc(SC(=O)COc2ccc(C)c(C)c2)cc1 |  | inconclusive: 7.52 µM [inhibitor, partial curve]
O=C1CSC(c2cccnc2)N1CC1CC1 (stereo not drawn) |  | inconclusive: 29.9 µM [inhibitor, partial curve]
CN1CCN(NC(=O)CN2C(=O)/C(=C/c3ccccc3Cl)SC2=S)CC1 |  | inconclusive: 10.6 µM [inhibitor, partial curve]

Compound | max response, negative = inhibition | Potency
COc1ccc(NC(=O)c2sccc2-n2cccc2)cc1 |  | inconclusive: 16.8 µM [inhibitor, partial curve]
CCCCC1CC(/C(C)=N/NC(N)=O)OC1=O (stereo not drawn) |  | inconclusive: 33.6 µM [inhibitor, partial curve]
CC(=O)Nc1cccc(/C(C)=N/NC(=O)c2ccc(CN3CCOCC3)cc2)c1 |  | inconclusive: 16.8 µM [inhibitor, partial curve]
Cc1ccc(-n2nc(C)c3c2OC(N)=C(C#N)C3c2ccccc2F)cc1 (stereo not drawn) |  | inconclusive: 26.7 µM [inhibitor, partial curve]
CCCCNC(=O)c1ccccc1NC(=O)CCC |  | inconclusive: 5.32 µM [inhibitor, partial curve]
Cc1cccc(NC(=O)[C@H](Cc2ccccc2)NC(=O)[C@@H]2Cc3ccccc3CN2)c1 |  | inconclusive: 0.844 µM [inhibitor, single point]
CN(C)S(=O)(=O)c1cccc(-c2cn3cccnc3n2)c1 |  | inconclusive: 26.7 µM [inhibitor, single point]
Cc1c(C(=O)Nc2cccc(F)c2)cnn1-c1ccccc1 |  | inconclusive: 18.9 µM [inhibitor, partial curve]
O=C(COc1ccc(Cl)cc1Cl)NCCSc1ccc(Cl)cc1 |  | active: 2.99 µM
COc1ccc(NS(=O)(=O)c2ccc(NC(=O)c3ccc(CN4CCOCC4)cc3)cc2)cc1 | inactive: -1.1% | 
O=C(O)c1cc(Br)ccc1NS(=O)(=O)c1cccc2nsnc12 |  | inconclusive: 37.7 µM [inhibitor, single point]
CC(=O)Nc1ccc(SCC(=O)Nc2oc(C)c3c(C)n[nH]c(=O)c23)cc1 |  | active: 18.9 µM
COc1ccc(-c2nn(-c3ccccc3)cc2/C=C2/SC(=S)N(CCC(=O)O)C2=O)cc1 |  | active: 21.2 µM
COc1cccc(C2=NOC(C(=O)N3CCc4ccccc4C3)C2)c1 (stereo not drawn) |  | inconclusive: 37.7 µM [inhibitor, single point]
COc1ccc(NC(=O)N2CCC(n3cnc4ccccc43)CC2)cc1 | inactive: -7.03% | 
COC(=O)c1sc(N2C(=O)C(=O)/C(=C(/O)c3ccc(C)cc3)C2c2ccco2)nc1C (stereo not drawn) |  | inconclusive: 21.2 µM [inhibitor, single point]
Cc1nn(CC(=O)Nc2ccc(Br)cc2F)c(=O)c2cccn12 |  | inconclusive: 23.8 µM [inhibitor, single point]
CCc1cc(C(c2ccccn2)N2CCN(C)CC2)c(NC(=O)c2ccccc2)s1 (stereo not drawn) | inconclusive: -31.8% [inhibitor] | 
Cc1ccc(SCC(=O)NC(=O)NCc2ccco2)c(C)c1 |  | inconclusive: 29.9 µM [inhibitor, partial curve]
O=C(Oc1ccc2ccccc2c1)C1CCC1 | inactive: -3.36% | 
CC(=O)C1=C(C)N=c2s/c(=C/c3ccc4c(c3)OCO4)c(=O)n2C1c1ccc(N(C)C)cc1 (stereo not drawn) |  | active: 26.7 µM
O=Cc1c(Cl)[nH]c(=O)n1-c1ccccc1 |  | inconclusive: 26.7 µM [inhibitor, single point]
CCCCc1cc(=O)oc2cc(C)cc(OCC(=O)NCCN3CCOCC3)c12 | inactive: -8.26% | 
O=c1c2c(nc3c(-c4ccc(Cl)cc4)c[nH]n13)CCC2 |  | inconclusive: 29.9 µM [inhibitor, partial curve]

An excerpt of these results, field by field:
O=C1CSC(c2cccnc2)N1CC1CC1 (stereo not drawn)
  Potency: inconclusive: 29.9 µM [inhibitor, partial curve]
CC(=O)Nc1cccc(/C(C)=N/NC(=O)c2ccc(CN3CCOCC3)cc2)c1
  Potency: inconclusive: 16.8 µM [inhibitor, partial curve]

From PubChem BioAssay AID720504 (National Center for Advancing Translational Sciences (NCATS), 2013)
